Source: PubChem BioAssay AID1671190 (National Center for Advancing Translational Sciences (NCATS), 2021)
In all, about 580,000 compounds went through this assay and about 6,100 (1.1%) were called active. Inconclusive means that the source gave no clear call. Such entries were picked first, then a sample of the others. The call rests on the fitted dose curve; in most records, active means well fitted inhibition curve with a large enough effect; inconclusive means small, poorly fitted or top-dose-only effect, or another doubt; inactive means no such curve, though single readings can be large or run the other way. Potencies of inconclusive entries are doubtful fits and often do not repeat.

Chains of the proteins cited; added tags and fusions are not shown. Lines headed by an entry give the natural chain unless they say otherwise; changes in a name come on top.
UniProt P18054: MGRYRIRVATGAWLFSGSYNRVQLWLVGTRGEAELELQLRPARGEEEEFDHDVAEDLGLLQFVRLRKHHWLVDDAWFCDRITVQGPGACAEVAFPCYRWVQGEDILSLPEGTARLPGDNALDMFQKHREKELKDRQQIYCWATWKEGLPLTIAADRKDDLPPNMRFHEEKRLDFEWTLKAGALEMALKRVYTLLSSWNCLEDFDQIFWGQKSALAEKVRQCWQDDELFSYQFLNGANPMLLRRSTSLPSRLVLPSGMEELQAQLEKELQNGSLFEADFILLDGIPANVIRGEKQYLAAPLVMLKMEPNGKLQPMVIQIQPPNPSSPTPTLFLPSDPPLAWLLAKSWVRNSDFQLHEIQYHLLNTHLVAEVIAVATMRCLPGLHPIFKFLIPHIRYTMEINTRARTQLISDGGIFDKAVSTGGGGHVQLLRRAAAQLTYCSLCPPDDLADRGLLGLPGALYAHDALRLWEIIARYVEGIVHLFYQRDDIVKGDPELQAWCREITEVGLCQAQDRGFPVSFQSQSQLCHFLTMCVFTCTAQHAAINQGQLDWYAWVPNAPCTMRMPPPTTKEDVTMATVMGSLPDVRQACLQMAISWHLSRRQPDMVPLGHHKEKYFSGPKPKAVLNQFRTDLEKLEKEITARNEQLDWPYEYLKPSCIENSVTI

Molecular target: Polyunsaturated fatty acid lipoxygenase ALOX12 (Homo sapiens) (UniProt P18054)
Assay: Primary qHTS assay for inhibitors of human arachidonate 12S-lipoxygenase (ALOX12): Round 2
Conditions: purified 12hLO, xylenol orange hydroperoxide absorbance; series mostly up to 108 µM
Method in brief: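 Hydroperoxide product was detected by ferrous iron/xylenol orange as the 573 to 405 nm absorbance ratio. Arachidonic acid at 40 uM (final) was turned over for 30 min at room temperature by 150 nM human 12hLO, pH 7.0 Hepes buffer, after 15 min compound preincubation.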
Potency means the concentration at half of the fitted maximal effect.

| SMILES | Potency |
| --- | --- |
| OC(CNC1CCCc2ccccc21)COc1ccc2ccccc2c1 (stereo not given) | inconclusive: 44.7 µM [inhibitor, partial curve] |
| COc1ccccc1OCCC(=O)Nc1ccc2c(c1)OCO2 | inactive |
| O=C(c1ccccc1)N1N=C(c2ccco2)CC1c1cccs1 (stereo not given) | inconclusive: 35.5 µM [inhibitor, partial curve] |
| CN(C)CCNC(=O)C(=O)C1C(=O)Nc2ccccc21 (stereo not given) | inconclusive: 0.355 µM [inhibitor, full curve, poor fit] |
| Cc1cccc(C(=O)Nc2ccc3c(c2)C(=O)NC3=O)c1 | inconclusive: 22.4 µM [inhibitor, full curve, poor fit] |
| O=C(Cc1cccs1)NCC12CC3CC(CC(C3)C1)C2 | inconclusive: 15.8 µM [inhibitor, partial curve, poor fit] |
| O=C(c1ccccc1)N(Cc1cccc(Br)c1)C1CCS(=O)(=O)C1 (stereo not given) | inactive |
| CCC(Sc1nc2ccsc2c(=O)n1Cc1ccc(C(=O)O)cc1)C(=O)Nc1ccc(C)c(Cl)c1 (stereo not given) | inconclusive: 70.8 µM [inhibitor, partial curve, poor fit] |
| O=C(Nc1ccc2oc(-c3cccnc3)nc2c1)c1cccc(OCc2ccccc2)c1 | inconclusive: 7.08 µM [inhibitor, full curve, poor fit] |
| CC/C=C(/C)C(=O)NCCc1cccs1 | inactive |
| Cc1ccc2[nH]c3c(=S)nc[nH]c3c2c1 | inconclusive: 2 µM [inhibitor, full curve] |
| NC(=O)c1c(NC(=O)c2ccc(S(=O)(=O)N3CCOCC3)cc2)sc2c1CCCCC2 | inactive |
| COc1ccc(OC)c(-c2nnc3n(Cc4ccc(C)cc4)c(=O)c4ccccc4n23)c1 | inconclusive: 50.1 µM [inhibitor, partial curve, poor fit] |
| CCn1c(=O)c2ccccc2n(CC(=O)Nc2cccc3cccnc23)c1=O | inactive |
| COC(=O)c1c(NC(=O)C2CC2)sc2c1CCN(C(C)=O)C2 | inconclusive: 79.4 µM [inhibitor, single point] |
| CCc1noc(-c2cn(C3CCN(C(=O)c4cccc5[nH]ccc45)CC3)nn2)n1 | inconclusive: 8.91 µM [inhibitor, full curve] |
| COc1ccc(NS(=O)(=O)c2ccc(OC)c(N(C)S(=O)(=O)c3ccc(Cl)cc3)c2)cc1 | inactive |
| COc1ccc(NCCN2CCCC2)cc1 | inconclusive: 6.31 µM [inhibitor, full curve, poor fit] |
| O=C(O)c1ccc(O)c(O)c1 | inactive |
| CCOc1ccc(/C=C2\SC(=S)N(C(C(=O)O)c3ccccc3)C2=O)cc1OC (stereo not given) | active: 15.8 µM |

2 of these compounds, reformatted.
SMILES,Potency
COc1ccc(NS(=O)(=O)c2ccc(OC)c(N(C)S(=O)(=O)c3ccc(Cl)cc3)c2)cc1,inactive
COc1ccc(NCCN2CCCC2)cc1,"inconclusive: 6.31 µM [inhibitor, full curve, poor fit]"
